# Results published in PubChem BioAssay (Tox21).
# Protein sequences, listed by entry. Tags and fused reporters are not part of them.
# UniProt P14416, whole entry, looked up: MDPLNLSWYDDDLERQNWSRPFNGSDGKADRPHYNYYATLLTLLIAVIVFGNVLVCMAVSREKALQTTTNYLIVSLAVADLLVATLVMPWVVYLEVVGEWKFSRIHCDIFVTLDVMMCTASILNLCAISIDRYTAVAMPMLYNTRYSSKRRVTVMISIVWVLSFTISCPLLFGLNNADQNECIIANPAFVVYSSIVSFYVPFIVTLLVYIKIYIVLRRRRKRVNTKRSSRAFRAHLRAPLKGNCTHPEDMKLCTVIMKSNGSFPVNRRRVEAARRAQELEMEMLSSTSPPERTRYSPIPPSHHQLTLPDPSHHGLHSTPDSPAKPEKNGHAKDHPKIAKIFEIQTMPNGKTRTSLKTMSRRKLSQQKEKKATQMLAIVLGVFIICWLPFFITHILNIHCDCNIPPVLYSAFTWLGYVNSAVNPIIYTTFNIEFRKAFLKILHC
# “And” between values parts separate entries of the source, which are not always exact repeats. Identical values can stand only once. Inconclusive means that the source gave no clear call. Such entries were picked first, then a sample of the others. A potency beside an inconclusive call is a rough fit, not a confirmed value. The source made the active and inactive calls. Unless noted, the call rests on the fitted dose curve.
# Target: Beta-2 adrenergic receptor (Homo sapiens) (UniProt P07550)
# Assay: Adrenergic beta2 receptor (ADRB2) small molecule agonists, cell-based qHTS assay (AID 1963593);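 on activation: CHO cells stably overexpressing human ADRB2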
# Settings: CHO-ADRB2 cells, cAMP HTRF, 30 min; activation: at 92.4 µM (top of the series) unless noted
# In short: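 CHO cells stably over-expressing ADRB2 were plated overnight at 37C, then dosed with compounds plus a stimulation mix containing 100uM IBMX and 25uM Ro-20-1724 for 0.5hr at room temperature. cAMP was measured by HTRF competition, 1hr.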
# On the % scale 0 is the no-effect control and ±100 the full control effect; potency means the concentration at half of the fitted maximal effect.
Compound,activation,Potency
NC(=O)c1cccnc1,inconclusive: -10%,
Cc1ccccc1Br,inactive: 0.0014%,
CCCCCCCCC(CO)CCCCCC (configuration not stated),inactive: -16.1%,
CCOC(=O)Oc1ccc(CCNC(=O)[C@H](CCSC)NC(C)=O)cc1OC(=O)OCC,inconclusive: 2.08% [at 42.5 µM],
C=CCCC,inconclusive: 5.2%,
NC(=O)c1cc[n+](CC2=C(C(=O)[O-])N3C(=O)[C@@H](NC(=O)Cc4cccs4)[C@H]3SC2)cc1,,"inconclusive: 0.266 µM [inhibitor, full curve, poor fit]"
O=C(O)c1cc(C(=O)O)cc(S(=O)(=O)O)c1,inconclusive: 3.92%,
CC(=O)C1=C(C)[C@@H]2C[C@@]3(C1)[C@H](C)CC[C@H]3C2(C)C,inconclusive: -15.5%,
CCN[C@@H]1C[C@H](N)[C@@H](OC2OC(CN)=CCC2N)[C@H](O)[C@H]1O[C@H]1OC[C@](C)(O)[C@H](NC)[C@H]1O (some centres not stated),inactive: 7.07% [at 0.349 µM],
CC(C)(C)N,inactive: 20.2%,
O=C(NN1CCCC1)NS(=O)(=O)c1ccc(Cl)cc1,inactive: -2.39% [at 42.5 µM],
CCCCOC(=O)[C@H](C)O,inactive: -1.43%,
O=C(/C=C/c1ccccc1)OCCCc1ccccc1,inconclusive: 4.13%,
CCCC/C=C\CCCCCCCCCC=O,inactive: 9.23%,
CCCCCCCCCCOS(=O)(=O)O,inconclusive: -1.76%,
C=CCCCCCCCCCCC,inactive: -13.4% [at 8.39 µM],
NC(CCC(=O)O)C(=O)O (configuration not stated),inconclusive: 2.82%,
C/C=C(\C)C(C)=O,inactive: 14.6%,
C=C(C)C(=O)OC,,inconclusive: 14.9 µM [inhibitor]
Oc1cc(O)c(Cl)cc1Cl,inconclusive: -68.6%,
CN1CCC(=C2c3ccccc3CCc3cccnc32)CC1,,"inconclusive: 16.8 µM [activator, partial curve, poor fit]"
Cc1ccc(N)c([N+](=O)[O-])c1,,"inactive and inconclusive: 486 nM [inhibitor, single point]"
N#CCc1cccc(C(F)(F)F)c1,inactive: -7.13%,
CC/C=C\CCOC(C)=O,inconclusive: 6.99%,
Oc1cc(O)c2c(c1)O[C@H](c1ccc(O)c(O)c1)[C@H](O)C2,inactive: -3.66% [at 42.5 µM],
CCCN(CCC)C(=O)C(CCC(=O)O)NC(=O)c1ccccc1 (configuration not stated),inactive: -0.357% [at 42.5 µM],
c1ccc(CN(Cc2ccccc2)Cc2ccccc2)cc1,inactive: -11.3%,
Clc1ccnc(Cl)n1,inconclusive: 20.5%,
C=CCCCCCCCCC(=O)OCC,inconclusive: 0.258%,
CCN(CC)CCNC(=O)c1cc(S(C)(=O)=O)ccc1OC,inactive: 0.456% [at 42.5 µM],

# Same assay, conditions: CHO-ADRB2 cells, cAMP HTRF, 30 min; at 42.5 µM (top of the series)
row,Compound,activation
1,NC(=O)c1cccnc1,inactive: -15.1%
2,Cc1ccc(S(=O)(=O)NC(=O)NN2CCCCCC2)cc1,inconclusive: -5.02%
3,Cn1c([N+](=O)[O-])cnc1COC(N)=O,inconclusive: 6.63%

# Same assay, conditions: CHO-ADRB2 cells, cAMP HTRF, 30 min; at 92.4 µM (top of the series)
row,Compound,activation
1,NC(=O)c1cccnc1,inactive: -7.2%
2,Cc1ccc(S(=O)(=O)NC(=O)NN2CCCCCC2)cc1,inconclusive: 6.68%
3,CC(=O)C1=C(C)[C@@H]2C[C@@]3(C1)[C@H](C)CC[C@H]3C2(C)C,inactive: 7.84%
4,Cn1c([N+](=O)[O-])cnc1COC(N)=O,inconclusive: -36.8%

# Target: D(2) dopamine receptor (Homo sapiens) (UniProt P14416)
# Assay: Dopamine D2 receptor (DRD2) small molecule agonists, cell-based qHTS assay (AID 1963594); further: nearly all actives have a fitted effect of over 35% in size
# Settings: HEK293-DRD2 cAMP HTRF, agonist mode, 30 min; activation: at 92.4 µM (top of the series) unless noted
# In short: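 HEK293 cells stably expressing DRD2 were cultured 24 h at 37 C, then given Ro20-1724 (0.1 mM final) and compounds for 10 min at room temperature. NKH477 (200nM) was then added for 30 min. cAMP was read by HTRF.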
Compound,Potency,activation
CCOC(=O)Oc1ccc(CCNC(=O)[C@H](CCSC)NC(C)=O)cc1OC(=O)OCC,active: 2.37 µM,
CCc1ccc(CC)cc1,"inconclusive: 14.4 µM [falling, full curve, poor fit]",
NC(=O)c1cc[n+](CC2=C(C(=O)[O-])N3C(=O)[C@@H](NC(=O)Cc4cccs4)[C@H]3SC2)cc1,,inconclusive: -6.95% [at 42.5 µM]
C=CCCCCCCCCCCC,,inactive: -0.7% [at 8.39 µM]
c1cnc2c(n1)CCCC2,,inactive: -0.522%
COc1nc(C)nc(N)n1,"inconclusive: 0.969 µM [falling, single point]",
C=C(C)[C@H]1CC=C(C)CC1,,inconclusive: 0.507%
c1ccc(-c2ccc(-c3ccccc3)cc2)cc1,,inactive: 2.85% [at 19 µM]
CCCN(CCC)C(=O)C(CCC(=O)O)NC(=O)c1ccccc1 (configuration not stated),"inconclusive: 0.376 µM [rising, partial curve, poor fit]",

# Target: D(2) dopamine receptor (Homo sapiens) (UniProt P14416)
# Assay: Dopamine D2 receptor (DRD2) small molecule antagonists, cell-based qHTS assay (AID 1963595; active means well fitted inhibition curve with a large enough effect in the signal ratio in the repeat runs, with a control signal flat; inconclusive means weak or mixed curves, or effect the other way; the % refers to the signal ratio)
# Settings: HEK293-DRD2 cAMP HTRF antagonist mode; activity change, negative = inhibition: at 92.4 µM (top of the series) unless noted
# In short: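 HEK293 cells stably expressing DRD2, preincubated with 0.1 mM Ro20-1724 and compounds 10 min, were stimulated with 200 nM NKH477 plus 12 nM quinpirole for 30 min at room temperature; cAMP measured by HTRF (665/620 nm).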
Compound,"activity change, negative = inhibition",Potency
CCCCCCCCC(CO)CCCCCC (configuration not stated),inactive: 15.7%,
CCCCCCCCCCCCCCCCCl,inactive: 2.16% [at 18.9 µM],
COc1nc(N)nc2c1ncn2[C@@H]1O[C@H](CO)[C@@H](O)[C@@H]1O,,"inconclusive: 0.841 µM [falling, single point]"
CC(C)(C)N,,"inconclusive: 27.3 µM [cytotoxic, single point]"
O=C(NN1CCCC1)NS(=O)(=O)c1ccc(Cl)cc1,inconclusive: -0.232% [at 42.5 µM],
O=C(/C=C/c1ccccc1)OCCCc1ccccc1,inconclusive: 0.821%,
CCCCCCCCCCOS(=O)(=O)O,inconclusive: -0.808%,
C/C=C(\C)C(C)=O,inactive: 7.35%,
C=C(C)C(=O)OC,inactive: -2.97%,
CN1CCC(=C2c3ccccc3CCc3cccnc32)CC1,,active: 29.8 µM
CCN(CC)CCNC(=O)c1cc(S(C)(=O)=O)ccc1OC,,active: 15 µM
